No constants are given. Whether binding was seen depends on the method and setting. In cells and extracts the contact can be indirect. Some entries that bind do so weakly or less than the wild type.
Biological target: NR2B subunit of the NMDA receptor, endogenous, from mouse hippocampus tissue (mouse) (UniProt Q01097)
Experiment: GST pulldown from mouse hippocampus extract, Western blot

The chains behind the UniProt entries cited, without tags or fusion partners. Where a name states a change or a piece, a line headed by the entry shows the natural chain unless it says otherwise. Residues count along the entry.
UniProt Q01097, residues 27-1482: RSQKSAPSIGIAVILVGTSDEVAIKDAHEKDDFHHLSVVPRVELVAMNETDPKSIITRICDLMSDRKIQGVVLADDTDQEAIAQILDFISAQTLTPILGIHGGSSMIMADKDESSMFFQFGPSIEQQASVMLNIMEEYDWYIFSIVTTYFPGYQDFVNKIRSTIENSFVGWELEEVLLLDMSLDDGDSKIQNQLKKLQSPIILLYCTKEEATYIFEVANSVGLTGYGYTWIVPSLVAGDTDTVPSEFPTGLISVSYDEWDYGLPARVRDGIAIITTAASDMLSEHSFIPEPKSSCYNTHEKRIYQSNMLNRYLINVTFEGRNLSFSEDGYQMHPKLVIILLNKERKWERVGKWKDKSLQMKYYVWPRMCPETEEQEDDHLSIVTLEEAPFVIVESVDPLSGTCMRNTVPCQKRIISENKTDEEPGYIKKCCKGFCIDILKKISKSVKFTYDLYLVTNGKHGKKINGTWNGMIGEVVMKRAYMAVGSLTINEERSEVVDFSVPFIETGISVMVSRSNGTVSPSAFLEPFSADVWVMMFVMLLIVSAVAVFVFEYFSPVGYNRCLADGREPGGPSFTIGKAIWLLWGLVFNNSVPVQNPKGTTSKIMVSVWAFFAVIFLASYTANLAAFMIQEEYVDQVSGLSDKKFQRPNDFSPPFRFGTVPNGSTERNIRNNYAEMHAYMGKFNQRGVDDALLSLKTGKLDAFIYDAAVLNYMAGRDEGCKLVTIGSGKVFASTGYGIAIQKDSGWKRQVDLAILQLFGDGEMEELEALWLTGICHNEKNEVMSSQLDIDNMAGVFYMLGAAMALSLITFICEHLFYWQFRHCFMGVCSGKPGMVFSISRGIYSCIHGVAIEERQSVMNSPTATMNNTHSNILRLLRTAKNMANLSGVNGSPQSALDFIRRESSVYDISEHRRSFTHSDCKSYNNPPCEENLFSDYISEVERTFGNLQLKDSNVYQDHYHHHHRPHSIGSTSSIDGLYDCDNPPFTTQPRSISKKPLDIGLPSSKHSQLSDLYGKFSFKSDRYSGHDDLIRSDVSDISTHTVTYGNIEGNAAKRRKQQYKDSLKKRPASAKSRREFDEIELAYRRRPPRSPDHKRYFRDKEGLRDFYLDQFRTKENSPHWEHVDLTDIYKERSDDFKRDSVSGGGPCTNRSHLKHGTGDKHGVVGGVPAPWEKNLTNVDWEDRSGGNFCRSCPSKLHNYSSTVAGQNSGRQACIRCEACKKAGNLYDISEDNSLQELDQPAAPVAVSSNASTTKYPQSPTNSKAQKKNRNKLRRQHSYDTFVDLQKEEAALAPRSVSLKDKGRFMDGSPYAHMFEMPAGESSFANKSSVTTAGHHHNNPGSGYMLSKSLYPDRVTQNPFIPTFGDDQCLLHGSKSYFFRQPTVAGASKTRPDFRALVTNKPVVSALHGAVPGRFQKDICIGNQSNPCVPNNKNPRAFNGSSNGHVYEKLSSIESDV
UniProt P14416: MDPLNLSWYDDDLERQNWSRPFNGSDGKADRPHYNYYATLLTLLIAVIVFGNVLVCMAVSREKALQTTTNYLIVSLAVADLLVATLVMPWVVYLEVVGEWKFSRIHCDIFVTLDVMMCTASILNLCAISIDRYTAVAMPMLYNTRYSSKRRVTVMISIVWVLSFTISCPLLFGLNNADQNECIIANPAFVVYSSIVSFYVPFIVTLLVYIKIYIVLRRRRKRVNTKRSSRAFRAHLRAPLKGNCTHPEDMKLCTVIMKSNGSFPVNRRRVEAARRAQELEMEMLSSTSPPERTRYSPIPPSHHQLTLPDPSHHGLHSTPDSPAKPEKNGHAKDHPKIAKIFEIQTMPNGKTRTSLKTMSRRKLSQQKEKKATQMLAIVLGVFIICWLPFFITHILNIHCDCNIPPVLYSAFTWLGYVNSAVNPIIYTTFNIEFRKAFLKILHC

GST fusion protein containing the IL3 region of D2R (GST-D2R-IL3) (from UniProt P14416 211-373)
binding: binds

GST fusion protein containing the KVC region of D2R (GST-D2R-KVC) (from UniProt P14416 211-270)
binding: binds

Reference: patent US20240424119A1, “USE OF POLYPEPTIDE IN RESISTANCE TO ADDICTION AND RELAPSE THEREOF, AND COMPLEX AND POLYPEPTIDE” (SHENZHEN CHENYANG BIOLOGICAL TECHNOLOGY CO., LTD, priority 2021, published 2024)
